Data taken from paper doi:10.1101/2023.10.06.561269 (bioRxiv, 2023).

Tests used:
[1] = target: V. cholerae FtsE (V. cholerae); assay: SEC
[2] = target: V. cholerae FtsE (V. cholerae); assay: pull-down
[3] = target: V. cholerae FtsE (V. cholerae); assay: cryo-EM structure

Measured: binding

V. cholerae FtsX (from UniProt A0A0H6I1B7)
binds: all assays above

These are yes or no findings as the source states them, for the method shown. Binding can be weak; no strength is given. For part of these data: In cells and extracts the contact can be indirect.
